Literature values, collected in patent US20100255598A1, “Medication Adherence Monitoring System” (priority 2007, published 2010).
Some entries share one result that the patent states for a list of compounds.

Conditions: Europe; cited from earlier work

SMILES | ADI (acceptable daily intake)
CCOC(=O)c1ccc(O)cc1 [ethyl paraben, ethylparaben] | up to 10 mg/kg per day
COC(=O)c1ccc(O)cc1 [methyl paraben, methylparaben] | up to 10 mg/kg per day
